Data reported in PMC3982516.
For at least one entry, the source does not settle the construct or the ends of the probe. At least one verdict rests on a figure or table, not on a statement of the authors.

Target: lysozyme (UniProt P00698)
Experiment: aptamer strand-displacement sensor (lysozyme-triggered RCA, fluorescence/TIRFM read-out)
Details: Klenow, Nb.BbvCI, dNTP and primers present, indirect amplified read-out, circle template is covalently closed, 1x NEBuffer 2, dNTP 0.25 mM each, 37 C, 3 h, commercial protein

## ATCTACGAATTCATCAGGGCTAAAGAGTGCAGAGTTACTTAGAGGCCTCAGCGGTAATGGTGTCTT / CCTCTAAGTAACTCTGAGGATTAGGATTAGGAGGAGGAGGTAGGGCGGCTTCGGATTTTTTTTTTTTGACACCATTACC
  binding result: binds
